Data as given in PubChem BioAssay AID587 (National Center for Advancing Translational Sciences (NCATS), 2007).
Among all 59,000 compounds or so, about 35 (0.06%) were called active. The inconclusive results got no clear call from the source; some entries with a clear call stand among them for comparison. Cut-off read from the data, not from the text of the source: active = max dye-equivalent concentration above about 10 nM; inconclusive = between about 1.1 nM and that limit; inactive = weaker than that.

Assay: qHTS Assay for Spectroscopic Profiling in Texas Red Spectral Region
Details: Compound fluorescence, Texas Red channel, 547/618 nm; hits give high values
Procedure, shortened: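 Pin-transferred compounds and Texas Red standards go into 100 mM Tris buffer, pH 8.0. After 15 min at room temperature, plates are imaged with 547/618 nm filters. Each value is a dye-equivalent concentration derived from the per-plate dye curve.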

Row | Compound | max dye-equivalent concentration
1 | Cc1cc(NCCCN2CCOCC2)n2ncc(-c3ccc(Cl)cc3)c2n1 | inconclusive: 1.2 nM
2 | COc1ccc(-n2c(=O)c(-c3cn(C)c4ccccc34)nc3cnc(OC)nc32)cc1 | inconclusive: 1.2 nM
3 | COc1cc(OC)cc(C(=O)Nc2ccc(S(=O)(=O)N(C)C)cc2)c1 | inconclusive: 3.2 nM
4 | O=C(Nc1ccccc1N1CCCCC1)c1ncoc1-c1ccc(F)cc1 | inconclusive: 1.5 nM
5 | O=C(CN1CCN(c2ccccc2)CC1)Nc1nnc(-c2ccccc2)s1 | inconclusive: 1.5 nM
6 | Cc1occc1-c1nnc(SCC(=O)NCc2cccs2)n1CC1CCCO1 (stereo unspecified) | inconclusive: 1.2 nM
7 | NC(=O)C1CCN(c2oc(-c3ccccc3F)nc2S(=O)(=O)c2ccc(Cl)cc2)CC1 | inconclusive: 2.2 nM
8 | CCOC(=O)CSc1nnc(CCc2nc3ccccc3[nH]2)n1C | inconclusive: 1.4 nM
9 | CC(=O)Nc1nnc(S(N)(=O)=O)s1 | inconclusive: 1.2 nM
10 | Cc1ccc2[nH]c(=O)c(-c3noc(-c4ccncc4)n3)cc2c1 | inconclusive: 1.4 nM
11 | Cc1nc2ccccc2c(=O)n1CCCn1ccnc1 | inconclusive: 1.3 nM
12 | CNC(=O)CSc1nnnn1CCCOC | inconclusive: 1.4 nM
13 | COc1ccc(NC(=O)N(C2CCCCC2)C(C)c2ccco2)c(OC)c1 (stereo unspecified) | inconclusive: 1.2 nM
14 | CC(C)c1ccc2c(c1)CC[C@@H]1[C@@](C)(CN)CCC[C@@]21C | inactive
15 | C=CCn1c(SCC(=O)NCc2ccc3c(c2)OCO3)nnc1C1COc2ccccc2O1 (stereo unspecified) | inconclusive: 1.2 nM
16 | O=C(C1CCN(S(=O)(=O)N2CCOCC2)CC1)N1CCN(Cc2ccccc2)CC1 | inconclusive: 2.3 nM
17 | COc1cc(-c2nnc(SCC(=O)N(Cc3ccccc3)C(C)(C)C)o2)cc(OC)c1OC | inconclusive: 2.3 nM
18 | Oc1ccc2ccccc2c1C=NCc1c(O)ccc2ccccc12 | inactive
19 | CCOC(=O)c1oc2cc(O)ccc2c(=O)c1-c1csc(C)n1 | inactive
20 | Clc1ccccc1NN(Cc1ccccn1)c1ccccc1Cl | inconclusive: 2.6 nM
21 | O=C(c1ccccc1Cl)N1CCCC(c2nc3c(nnn3Cc3ccccc3)c(=O)[nH]2)C1 (stereo unspecified) | inconclusive: 1.3 nM
22 | C=CCn1c(=O)c2ccccc2n2c(Sc3nnnn3-c3ccccc3)nnc12 | inconclusive: 1.8 nM

Row | Compound | max dye-equivalent concentration
23 | Cc1ccc2cc(C(c3nnnn3C3CCCC3)N3CCN(c4ccc(F)cc4)CC3)c(=O)[nH]c2c1 (stereo unspecified) | inconclusive: 1.6 nM
24 | Cc1cc(C)c(NC(=O)CS(=O)CC(=O)N2CCN(c3ccccc3)CC2)c(C)c1 (stereo unspecified) | inconclusive: 3 nM
25 | CCOC(=O)CN1C(=O)C(O)(C2CCc3ccccc3C2=O)c2ccccc21 (stereo unspecified) | inconclusive: 1.4 nM
26 | CCNc1ncc2nc(-c3ccc(F)cc3)c(=O)n(CCC#N)c2n1 | inactive
27 | CC(=O)c1c(C)[nH]c(C(=O)NCCc2cccc(C)c2)c1C | inconclusive: 1.6 nM
28 | CC1(C)CC(=O)C2=C(C1)N1CCCCC1CC2=O (stereo unspecified) | inactive
29 | COc1cc(OC)nc(NC(=O)COC(=O)C2CCCCC2)n1 | inconclusive: 1.7 nM
30 | COc1cccc2cc(-c3nc(-c4cccs4)cs3)c(=O)oc12 | inactive
31 | O=C1CC[C@H](N2C(=O)c3ccccc3C2=O)C(=O)N1 | inconclusive: 1.1 nM
32 | CCN(CC)C(=O)CSc1nc2ccccc2c(=O)n1-c1ccccc1OC | inconclusive: 1.2 nM
33 | Cc1ccc2cc(CN(CC(C)C)C(=O)C3CCCO3)c(=O)[nH]c2c1 (stereo unspecified) | inconclusive: 1.1 nM
34 | COc1cc(Cl)c(S(=O)(=O)NCCCN2CCOCC2)cc1Cl | inconclusive: 1.1 nM
35 | Cc1cc(C(=O)COC(=O)c2n[nH]c3ccccc23)c(C)n1C | inconclusive: 1.2 nM
36 | c1ccc(OCCOc2ccccc2-c2nnco2)cc1 | inconclusive: 1.1 nM
37 | COc1cc([C@H](O)CO)ccc1O | inconclusive: 2 nM
38 | COC(=O)[C@H](CCSC)NC(=O)Nc1ccc(C(C)=O)cc1 | inconclusive: 1.1 nM
39 | CC(C)NC(=O)N1CCC2(CC1)CCN(C(=O)c1cccc(F)c1)CC2 | inactive
40 | CCOC(=O)N1CC=C2C(C#N)=C(N)C(C#N)(C#N)[C@H](c3ccccc3OCC)[C@H]2C1 | inconclusive: 1.3 nM
41 | N#Cc1cc2c(=O)n3ccccc3nc2n(CCCN2CCOCC2)c1=O | inconclusive: 1.2 nM
42 | Cn1c(=O)c(CCc2ccccc2)nc2cnc(N3CCNCC3)nc21 | inactive
43 | CC(=O)N(CC1CCCO1)c1nnc(-c2ccccn2)s1 (stereo unspecified) | inconclusive: 1.2 nM
44 | COC(=O)c1ccc(C)c(NC(=O)C2COc3ccccc3O2)c1 (stereo unspecified) | inconclusive: 1.8 nM

Row | Compound | max dye-equivalent concentration
45 | O=S1(=O)CC(NCc2ccccc2)C(Nc2ccccc2)C1 (stereo unspecified) | inconclusive: 1.1 nM
46 | Cc1cc(N2CCCC2)n2nc(C)c(-c3ccccc3)c2n1 | inactive
47 | COc1cc(-c2nnc3sc(-c4ccco4)nn23)cc(OC)c1OC | inconclusive: 1.9 nM
48 | CCOC(=O)/C=C1\SCC(=O)N1CC(=O)Nc1ccccc1OC(F)F | inconclusive: 1.7 nM
49 | COCC(C)n1c(C)cc(C(=O)COC(=O)c2oc3ccccc3c2C)c1C (stereo unspecified) | inconclusive: 1.4 nM
50 | C1CCC(N=C(NC23CC4CC(CC(C4)C2)C3)N2CCOCC2)CC1 | inconclusive: 1.5 nM
51 | Cc1ccc(-c2noc(CCC(=O)N(C)c3ccccc3C)n2)cc1 | inconclusive: 1.1 nM
52 | CC1=C(\C=C/C(C)=C/C=C\C(C)=C\C(=O)Nc2ccc(O)cc2)C(C)(C)CCC1 | inactive
53 | N#Cc1sc2nc3c(c(-c4cccnc4)c2c1N)CCC3 | inconclusive: 1.1 nM
54 | Cc1onc(-c2c(Cl)cccc2Cl)c1C(=O)NCCCN1CCOCC1 | inconclusive: 1.7 nM
55 | COc1ccccc1C1C(C(=O)c2cc3ccccc3o2)=C(O)C(=O)N1CCN1CCOCC1 (stereo unspecified) | inconclusive: 1.2 nM
56 | Cn1c(SCC(=O)Nc2ccc(N3CCOCC3)c(Cl)c2)nnc1-c1ccccc1 | inconclusive: 1.1 nM
57 | COc1ccc(-c2coc3cc(O[C@@H]4O[C@@H](CO)[C@@H](O)[C@@H](O)[C@H]4O)cc(O)c3c2=O)cc1 | inactive
58 | CCOC(=O)Cc1csc(SCC(=O)N2CCN(c3ccc(OC)cc3)CC2)n1 | inconclusive: 2.1 nM
59 | CCOCCCn1c(=NC(=O)c2cccnc2)c(C(=O)OCC)cc2c(=O)n3ccccc3nc21 | inconclusive: 1.7 nM
60 | CC(=O)S[C@H]1CC2=CC(=O)CC[C@@]2(C)[C@H]2CC[C@@]3(C)[C@H](CC[C@]34CCC(=O)O4)[C@@H]12 | active: 10 nM
61 | Cc1[nH]c2ccccc2c1C(=O)CN1CCCCC1CCO (stereo unspecified) | inconclusive: 1.4 nM
62 | O=C(CN1CCC2(CC1)OCCO2)c1c[nH]c2ccccc12 | inconclusive: 1.1 nM
63 | CNc1ncnc2c1ncn2[C@@H]1O[C@@H](CO)[C@H](O)[C@@H]1O | inactive
64 | CCn1c(SCC(=O)Nc2nccs2)nnc1-c1ccc(C)cc1 | inconclusive: 1.3 nM
65 | CC(C)n1c(CNC(=O)c2ccccc2)nc2ccccc21 | inconclusive: 1.8 nM
66 | Cn1nnc(C(O)CNCc2cccs2)n1 (stereo unspecified) | inconclusive: 1.1 nM

Row | Compound | max dye-equivalent concentration
67 | CN(C)S(=O)(=O)c1ccc(C(=O)Nc2ccccc2C(=O)O)cc1 | inconclusive: 1.4 nM
68 | c1nc(NCCN2CCOCC2)c2sc3nc(N4CCOCC4)c4c(c3c2n1)CCC4 | inconclusive: 1.8 nM
69 | Cc1nc2ccc(S(=O)(=O)NCC(=O)N3CCN(c4ccccn4)CC3)cc2s1 | inconclusive: 1.1 nM
70 | O=C(COc1ccc(Cl)cc1Cl)NCCCn1ccnc1 | inconclusive: 2.4 nM
71 | CCOC(=O)c1ccc2c(c1)nc(SCC(=O)N1CCCCC1)n2CC | inconclusive: 2 nM
72 | Cc1nnc(NC(=O)CN2C(=O)c3ccccc3S2(=O)=O)s1 | inconclusive: 1.5 nM
73 | C=CCN=C1SC(C)C(=O)N1S(=O)(=O)c1ccccc1 (stereo unspecified) | inconclusive: 1.7 nM
74 | COc1ccc(CNc2ccc(S(N)(=O)=O)cc2)c(OC)c1OC | inconclusive: 1.5 nM
75 | CCOC(=O)c1ccc(N2CC(O)=C(c3nc4ccccc4c(=O)[nH]3)C2=N)cc1 | inconclusive: 1.3 nM
76 | CCc1cc(-c2[nH]ncc2-c2ccc3c(c2)OCO3)c(O)cc1O | inconclusive: 1.2 nM
77 | Cc1ccc(N(C(=O)Nc2ccccc2)C2=NCC(C)S2)cc1 (stereo unspecified) | inconclusive: 1.2 nM
78 | C=CCn1c(SCc2ccc(OC)cc2)nnc1-c1cccnc1 | inconclusive: 2.8 nM
79 | COC(=O)c1cc(NCc2cccs2)ccc1N1CCOCC1 | inconclusive: 1.1 nM
80 | CCC(C)C(NC(=O)c1ccccc1NC(=O)c1ccco1)C(=O)O (stereo unspecified) | inconclusive: 2.2 nM
81 | COc1ccc(CC(CC(=O)O)C(=O)Nc2ccc(OC)cc2)cc1 (stereo unspecified) | inconclusive: 1.2 nM
82 | Cc1cc(NC(=O)Cn2nc(-c3ccccc3F)ccc2=O)ccc1-n1cnnn1 | inconclusive: 1.1 nM
83 | Nc1[nH]c(=S)[nH]c(=O)c1-c1ccccc1 | inconclusive: 1.3 nM
84 | C[C@@H](C(=O)O)c1ccc(C(=O)c2cccs2)cc1 | inconclusive: 1.3 nM
85 | O=C(CSc1nc(-c2ccco2)cc(C(F)(F)F)n1)NCCc1ccccc1 | inconclusive: 1.8 nM
86 | CS(=O)(=O)N(CC(=O)NCCSc1ccc(Cl)cc1)c1ccc2c(c1)OCO2 | inconclusive: 1.6 nM

An excerpt from further up:
Row | Compound | max dye-equivalent concentration
45 | O=S1(=O)CC(NCc2ccccc2)C(Nc2ccccc2)C1 (stereo unspecified) | inconclusive: 1.1 nM
46 | Cc1cc(N2CCCC2)n2nc(C)c(-c3ccccc3)c2n1 | inactive
47 | COc1cc(-c2nnc3sc(-c4ccco4)nn23)cc(OC)c1OC | inconclusive: 1.9 nM
48 | CCOC(=O)/C=C1\SCC(=O)N1CC(=O)Nc1ccccc1OC(F)F | inconclusive: 1.7 nM
49 | COCC(C)n1c(C)cc(C(=O)COC(=O)c2oc3ccccc3c2C)c1C (stereo unspecified) | inconclusive: 1.4 nM
